Reference: PubChem BioAssay AID1159584 (Peter MacCallum Cancer Centre, 2016)
Screen: 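Genes whose loss is lethal only together with E-cadherin loss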 (primary screen). System: human MCF10A breast epithelial cells, parental and CDH1-null. Reagents: siRNA against human genes. Read-out: 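ATP luminescence (CellTiter-Glo) viability per line relative to mean mock wells over all plates, and the ratio of CDH1-null to parental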. Scale: CDH1-null / parental viability ratio: higher = CDH1-null cells survive relatively better than parental.
Here is one part, drawn at random, of about 18,000 reagents tested. Further read-outs or replicates are left out here. Not stated in the record: the amount of reagent, the time to read-out.

target | CDH1-null / parental viability ratio
ARPC4 (actin related protein 2/3 complex subunit 4) | 0.99
EHF (ETS homologous factor) | 1.03
RAP1GAP2 (RAP1 GTPase activating protein 2) | 1.23
GCC1 (GRIP and coiled-coil domain containing 1) | 0.94
LPAR3 (lysophosphatidic acid receptor 3) | 1.55
GCNA (germ cell nuclear acidic peptidase) | 0.75
ANXA10 (annexin A10) | 0.82
MYNN (myoneurin) | 1.11
FAM168B (family with sequence similarity 168 member B) | 0.88
C14orf119 (chromosome 14 open reading frame 119) | 0.83
ANKRD12 (ankyrin repeat domain 12) | 1.05
DHX15 (DEAH-box helicase 15) | 0.94
CAMKV (CaM kinase like vesicle associated) | 0.97
DUT (deoxyuridine triphosphatase) | 1.03
KRABD4 (KRAB domain containing 4) | 0.81
PIK3C2A | 1
SESTD1 (SEC14 and spectrin domain containing 1) | 1.04
DST (dystonin) | 1.24
SELE (selectin E) | 0.68
CD163 (CD163 molecule) | 1.01
H4C12 (H4 clustered histone 12) | 0.89
NDUFS1 (NADH:ubiquinone oxidoreductase core subunit S1) | 0.97
IMPA2 (inositol monophosphatase 2) | 1.38
SIM1 (SIM bHLH transcription factor 1) | 1.03
VPS9D1 (VPS9 domain containing 1) | 1.31
TMEM141 (transmembrane protein 141) | 1
FMO4 (flavin containing dimethylaniline monoxygenase 4) | 0.98
INMT (indolethylamine N-methyltransferase) | 0.84
CEBPD (CCAAT enhancer binding protein delta) | 1.33
LHFPL3 (LHFPL tetraspan subfamily member 3) | 1.2
AP1AR | 0.96
ABTB2 (ankyrin repeat and BTB domain containing 2) | 0.82
PTMS (parathymosin) | 1.18
OR10C1 (olfactory receptor family 10 subfamily C member 1) | 1.13
RNF5 (ring finger protein 5) | 1.02
ADGRL2 (adhesion G protein-coupled receptor L2) | 0.79
FBXO30 (F-box protein 30) | 0.92
SOX12 (SRY-box transcription factor 12) | 0.96
PCYOX1L (prenylcysteine oxidase 1 like) | 1
LLGL1 (LLGL scribble cell polarity complex component 1) | 0.83
ACOT7 (acyl-CoA thioesterase 7) | 0.93
PRAG1 (PEAK1 related, kinase-activating pseudokinase 1) | 1.16
MAN2C1 (mannosidase alpha class 2C member 1) | 0.94
OR56B1 (olfactory receptor family 56 subfamily B member 1) | 1.03
NSD3 (nuclear receptor binding SET domain protein 3) | 1
ERC1 (ELKS/RAB6-interacting/CAST family member 1) | 0.87
TNS2 (tensin 2) | 0.75
MCF2 (MCF.2 cell line derived transforming sequence) | 0.96
RSPH6A (radial spoke head 6 homolog A) | 1.1
GNB5 (G protein subunit beta 5) | 1.09
GDNF (glial cell derived neurotrophic factor) | 1.03
CDC50B (cell division cycle 50 P4-ATPase accessory subunit B) | 1.02
CRLF3 (cytokine receptor like factor 3) | 1.13
MS4A1 (membrane spanning 4-domains A1) | 1.03
CDHR5 (cadherin related family member 5) | 0.75
PRPF6 (pre-mRNA processing factor 6) | 1.45
MBD4 (methyl-CpG binding domain 4, DNA glycosylase) | 0.97
DCXR (dicarbonyl and L-xylulose reductase) | 0.89
KANSL1L (KAT8 regulatory NSL complex subunit 1 like) | 1.07
TSHZ3 (teashirt zinc finger homeobox 3) | 0.91
DMP1 (dentin matrix acidic phosphoprotein 1) | 1.01
SAMD8 (sterile alpha motif domain containing 8) | 1.54
AP2A1 (adaptor related protein complex 2 subunit alpha 1) | 0.99
ANKRD20A2P (ankyrin repeat domain 20 family member A2, pseudogene) | 0.99
NOAZFP (nucleolar atypical zinc finger) | 1.09
BMP7 (bone morphogenetic protein 7) | 0.97
CGA (glycoprotein hormones, alpha polypeptide) | 1.11
SMG8 (SMG8 nonsense mediated mRNA decay factor) | 0.69

A stretch of the results above:
target | CDH1-null / parental viability ratio
SELE (selectin E) | 0.68
CD163 (CD163 molecule) | 1.01
H4C12 (H4 clustered histone 12) | 0.89
NDUFS1 (NADH:ubiquinone oxidoreductase core subunit S1) | 0.97
IMPA2 (inositol monophosphatase 2) | 1.38
